Measurements from PubChem BioAssay AID248 (DTP/NCI, 2004).
The list shows only some results of the screen, not a fair sample: it gathers tests that were run many times, whatever their T/C, doses with no T/C, and many T/C values between a quarter and a half above the control. Other doses and runs of a compound stand elsewhere. T/C: endpoint of the treated group in % of that of the vehicle group. Some doses have a count of surviving animals in place of a T/C: the source files T/C as zero there, which appears to mark a toxic dose or a test without result, not a measured value. Some survivor counts are full or nearly so, which does not show that the dose was tolerated: the source hardly ever lists a survival T/C far under the control, and the zero likely stands for such cases as well. Survivors were counted at the toxicity check, usually on the fifth day, unless a day is given; later deaths do not show. Schedule codes are those of the source, taken here to give the interval after Q, in days (D) or hours (H), and the number of doses after X. Marks such as (2×) count equal records among those shown. Some entries hold several experiments; their values stand side by side, smallest first. For survival time, the PubChem record calls one and a half times the control and up active, and a quarter to a half above the control has no call in these data; cut-offs in other NCI protocols can differ. Some T/C values are followed by the survivors on the day toxicity was checked, most often the fifth; where none is given, no animal had died by that day. Some schedules carry Z or #; the key to these is not given.

Test system: L1210 leukemia ip in BDF1 mice, survival T/C
Assay: NCI In Vivo Anticancer Drug Screen. Data for tumor model L1210 Leukemia (intraperitoneal) in B6D2F1 (BDF1) mice
Conditions: T/C endpoint: median survival time, higher T/C = longer survival

COc1cccc2c1C(=O)c1c(O)c3c(c(O)c1C2=O)C[C@@](O)(C(=O)CO)C[C@@H]3OC1CC(N)C(O)C(C)O1 (some centres undefined)
survivor count (dose: 3.0 mg/kg/injection, schedule: Q03HX024 (ip), vehicle: water): 4 of 8
T/C (dose: 3.0 mg/kg/injection, schedule: Q04DX003 (ip), vehicle: water, evaluated on day 5): 94, 108, 136, 148 % of control
T/C (dose: 3.0 mg/kg/injection, schedule: Q04DX003 (ip), vehicle: water, evaluated on day 7): 98, 104, 105, 109 % of control
T/C (dose: 3.0 mg/kg/injection, schedule: Q04DX003 (ip), vehicle: water, evaluated on day 24): 111 % of control
T/C (dose: 3.0 mg/kg/injection, schedule: Q04DX003 (ip), vehicle: water, evaluated on day 31): 104 % of control
T/C (dose: 3.0 mg/kg/injection, schedule: Q04DX003 (ip), vehicle: water, evaluated on day 40): 105 % of control
T/C (dose: 3.0 mg/kg/injection, schedule: Q04DX003 (ip), vehicle: water, evaluated on day 60): 94, 98 [7 of 8 alive], 109, 110, 118, 130, 136, 148 % of control
T/C (dose: 3.0 mg/kg/injection, schedule: Q04DX003 (ip), vehicle: water, evaluated on day 90): 138 % of control
T/C (dose: 3.9 mg/kg/injection, schedule: Q04DX003 (ip), vehicle: water): 127 % of control
T/C (dose: 4.0 mg/kg/injection, schedule: Q01DX001 (ip), vehicle: saline, evaluated on day 5): 125, 126 (2×), 135, 136, 138, 166 % of control
T/C (dose: 4.0 mg/kg/injection, schedule: Q01DX001 (ip), vehicle: saline, evaluated on day 30): 135 % of control
T/C (dose: 4.0 mg/kg/injection, schedule: Q01DX001 (ip), vehicle: saline, evaluated on day 60): 126, 126 [9 of 10 alive], 136, 138, 142 % of control
T/C (dose: 4.0 mg/kg/injection, schedule: Q01DX001 (ip), vehicle: water, evaluated on day 5): 114 and 127 % of control
T/C (dose: 4.0 mg/kg/injection, schedule: Q01DX001 (ip), vehicle: water, evaluated on day 21): 127 % of control
T/C (dose: 4.0 mg/kg/injection, schedule: Q01DX001 (ip), vehicle: water, evaluated on day 30): 116 % of control [7 of 8 alive]
survivor count (dose: 4.0 mg/kg/injection, schedule: Q01DX009 (ip), vehicle: water): 9 of 10
survivor count (dose: 4.0 mg/kg/injection, schedule: Q03HX008 (ip), vehicle: water): 1 of 10 and 3 of 8
T/C (dose: 4.0 mg/kg/injection, schedule: Q04DX003 (ip), vehicle: water, evaluated on day 5): 132 % of control
T/C (dose: 4.0 mg/kg/injection, schedule: Q04DX003 (ip), vehicle: water, evaluated on day 30): 132 and 139 % of control
T/C (dose: 4.0 mg/kg/injection, schedule: Q## X001 (ip), vehicle: saline): 125 % of control
T/C (dose: 4.0 mg/kg/injection, schedule: Q##DX001 (ip), vehicle: saline): 142 % of control
T/C (dose: 5.0 mg/kg/injection, schedule: Q01DX001 (ip), vehicle: water, evaluated on day 5): 124, 133, 151 % of control
T/C (dose: 5.0 mg/kg/injection, schedule: Q01DX001 (ip), vehicle: water, evaluated on day 7): 115 % of control (2×)
T/C (dose: 5.0 mg/kg/injection, schedule: Q01DX001 (ip), vehicle: water, evaluated on day 24): 116 and 122 % of control
T/C (dose: 5.0 mg/kg/injection, schedule: Q01DX001 (ip), vehicle: water, evaluated on day 30): 125, 130, 133 % of control
T/C (dose: 5.0 mg/kg/injection, schedule: Q01DX001 (ip), vehicle: water, evaluated on day 33): 116 % of control
T/C (dose: 5.0 mg/kg/injection, schedule: Q01DX001 (ip), vehicle: water, evaluated on day 46): 122 % of control
T/C (dose: 5.0 mg/kg/injection, schedule: Q01DX001 (ip), vehicle: water, evaluated on day 60): 104 and 109 % of control
T/C (dose: 5.0 mg/kg/injection, schedule: Q01DX001 (ip), vehicle: water, evaluated on day 61): 126 % of control
survivor count (dose: 5.0 mg/kg/injection, schedule: Q01DX005 (ip), vehicle: water): 8 of 8
survivor count (dose: 5.0 mg/kg/injection, schedule: Q01DX005 (sc), vehicle: water): 8 of 8
T/C (dose: 5.0 mg/kg/injection, schedule: Q03HX008 (ip), vehicle: water, evaluated on day 7): 94, 95, 110 % of control
T/C (dose: 5.0 mg/kg/injection, schedule: Q03HX008 (ip), vehicle: water, evaluated on day 20): 94 % of control [7 of 8 alive]
T/C (dose: 5.0 mg/kg/injection, schedule: Q03HX008 (ip), vehicle: water, evaluated on day 32): 95 % of control
T/C (dose: 5.0 mg/kg/injection, schedule: Q03HX008 (ip), vehicle: water, evaluated on day 60): 110 % of control
survivor count (dose: 5.0 mg/kg/injection, schedule: Q03HX024 (ip), vehicle: water): 8 of 8
T/C (dose: 5.0 mg/kg/injection, schedule: Q04DX003 (ip), vehicle: water, evaluated on day 5): 94, 109, 138, 160 % of control
T/C (dose: 5.0 mg/kg/injection, schedule: Q04DX003 (ip), vehicle: water, evaluated on day 7): 111, 112, 113, 114 % of control
T/C (dose: 5.0 mg/kg/injection, schedule: Q04DX003 (ip), vehicle: water, evaluated on day 24): 116 % of control
T/C (dose: 5.0 mg/kg/injection, schedule: Q04DX003 (ip), vehicle: water, evaluated on day 31): 112 % of control
T/C (dose: 5.0 mg/kg/injection, schedule: Q04DX003 (ip), vehicle: water, evaluated on day 40): 114 % of control
T/C (dose: 5.0 mg/kg/injection, schedule: Q04DX003 (ip), vehicle: water, evaluated on day 46): 161 % of control
T/C (dose: 5.0 mg/kg/injection, schedule: Q04DX003 (ip), vehicle: water, evaluated on day 60): 95, 100 [7 of 8 alive], 109 (2×), 111, 135, 136 % of control
T/C (dose: 5.0 mg/kg/injection, schedule: Q04DX003 (ip), vehicle: water, evaluated on day 61): 131 % of control
T/C (dose: 5.0 mg/kg/injection, schedule: Q04DX003 (ip), vehicle: water, evaluated on day 90): 155 % of control
T/C (dose: 5.0 mg/kg/injection, schedule: Q08DX002 (ip), vehicle: water, evaluated on day 30): 148 % of control
T/C (dose: 5.0 mg/kg/injection, schedule: Q08DX002 (ip), vehicle: water, evaluated on day 60): 113 and 118 % of control
T/C (dose: 5.0 mg/kg/injection, schedule: Q08DX002 (ip), vehicle: water, evaluated on day 61): 126 % of control
T/C (dose: 5.9 mg/kg/injection, schedule: Q01DX001 (ip), vehicle: water): 127 % of control
T/C (dose: 6.0 mg/kg/injection, schedule: Q03HX008 (ip), vehicle: water, evaluated on day 5): 42 and 53 % of control
T/C (dose: 6.0 mg/kg/injection, schedule: Q03HX008 (ip), vehicle: water, evaluated on day 7): 86 % of control
T/C (dose: 6.0 mg/kg/injection, schedule: Q03HX008 (ip), vehicle: water, evaluated on day 30): 86 % of control
survivor count (dose: 6.0 mg/kg/injection, schedule: Q03HX008 (ip), vehicle: water): 0 of 8 (2×)
T/C (dose: 8.0 mg/kg/injection, schedule: Q01DX001 (ip), vehicle: saline, evaluated on day 5): 139, 149, 151, 155, 160, 166, 226 % of control
